## Percent effect of library compounds

Chains of the proteins cited; added tags and fusions are not shown. Residues count along the entry.
UniProt A4I591, 1-473: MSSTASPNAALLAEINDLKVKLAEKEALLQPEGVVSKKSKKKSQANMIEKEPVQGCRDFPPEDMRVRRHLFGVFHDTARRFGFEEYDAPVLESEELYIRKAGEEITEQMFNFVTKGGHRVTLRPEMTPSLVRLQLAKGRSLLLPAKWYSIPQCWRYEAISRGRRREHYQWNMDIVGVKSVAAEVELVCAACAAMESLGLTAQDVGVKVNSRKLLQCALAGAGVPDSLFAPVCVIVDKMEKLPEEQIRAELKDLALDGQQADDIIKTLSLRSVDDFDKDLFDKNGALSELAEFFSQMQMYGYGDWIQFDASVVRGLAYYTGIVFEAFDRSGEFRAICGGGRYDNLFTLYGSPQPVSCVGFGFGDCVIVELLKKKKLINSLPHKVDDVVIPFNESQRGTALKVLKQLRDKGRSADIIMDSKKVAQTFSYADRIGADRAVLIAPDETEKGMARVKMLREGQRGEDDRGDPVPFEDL
UniProt P9WFT3, whole entry: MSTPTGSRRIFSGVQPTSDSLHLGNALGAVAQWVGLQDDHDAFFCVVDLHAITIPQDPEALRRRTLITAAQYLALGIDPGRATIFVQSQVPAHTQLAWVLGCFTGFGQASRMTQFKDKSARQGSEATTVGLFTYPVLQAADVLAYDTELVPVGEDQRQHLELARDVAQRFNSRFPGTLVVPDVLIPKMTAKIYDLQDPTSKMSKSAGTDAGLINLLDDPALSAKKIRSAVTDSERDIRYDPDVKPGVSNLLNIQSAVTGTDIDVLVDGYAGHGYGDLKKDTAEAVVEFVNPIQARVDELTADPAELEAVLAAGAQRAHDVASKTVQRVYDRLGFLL
UniProt P9WNZ1, whole entry: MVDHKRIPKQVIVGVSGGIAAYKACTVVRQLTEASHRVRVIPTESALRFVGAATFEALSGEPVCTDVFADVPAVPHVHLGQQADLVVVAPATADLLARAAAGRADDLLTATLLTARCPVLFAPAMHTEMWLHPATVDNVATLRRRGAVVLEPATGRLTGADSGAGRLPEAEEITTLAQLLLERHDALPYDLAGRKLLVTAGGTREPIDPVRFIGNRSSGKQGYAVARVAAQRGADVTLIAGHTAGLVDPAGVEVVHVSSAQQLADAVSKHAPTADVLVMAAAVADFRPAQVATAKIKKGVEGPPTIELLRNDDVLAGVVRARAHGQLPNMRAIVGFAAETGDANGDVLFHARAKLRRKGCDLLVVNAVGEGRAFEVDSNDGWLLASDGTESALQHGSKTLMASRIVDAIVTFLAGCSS

Source: ChEMBL document CHEMBL3988442, “University of Dundee, Small-Polar-MMV Screening Library” (2021).

Results are given as percent effect. The record does not define 0% and 100%; most values in the screen are far below 50% and negative numbers occur (in some assays of this library far below -100). Compounds were drawn at random from those tested, without regard to their results.

A: 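Enzyme assay of histidyl-tRNA synthetase; the read-out is not stated. Target: Histidine-tRNA ligase, Leishmania infantum (UniProt A4I591). Concentration: 30 µM. Direction is inferred from retests: higher values go with stronger inhibition. The assay is labelled LdHisRS but filed under L. infantum. About 69,000 compounds were tested under these conditions; 0.6% (about 410) showed 50% or more at least once.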
B: 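Enzyme assay of tryptophanyl-tRNA synthetase; the read-out is not stated. Target: Tryptophan-tRNA ligase, Mycobacterium tuberculosis (UniProt P9WFT3). Compounds at 10 µM. Higher most likely means stronger inhibition; the record gives no direction and few retests gave an IC50. Of about 65,000 compounds tested this way, about 64 (0.098%) reached 50% or more in at least one test.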
C: 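Assay of Toxoplasma gondii numbers, read through their beta-galactosidase reporter with a colour substrate. Concentration: 10 µM. Higher reads as fewer parasites (inferred from which compounds were picked for retests). Size under these conditions: about 67,000 compounds, about 260 of them at 50% or above in at least one test.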
D: 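Coenzyme A biosynthesis protein CoaBC, Mycobacterium tuberculosis (UniProt P9WNZ1). Enzyme assay of CoaBC with a phosphate dye (Biomol Green) read at 650 nm. Concentration: 30 µM. Higher reads as stronger inhibition, judged from the few compounds that gave an IC50. Most strong results did not repeat in a second test. Size under these conditions: about 67,000 compounds, about 40 of them at 50% or above in at least one test.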

- O=C(NCc1nnc2n1CCC2)c1ccc(C2CCCO2)s1 (stereo not shown) | A: 12.94%; B: 1.665%; C: -4.754%; D: 10.36%
- Cc1cc2nc(C(C)C)cc(NC(C)c3nncn3C3CCCC3)n2n1 (stereo not shown) | A: 16.33%; B: 8.448%; C: 17.5%; D: 2.296%
- Cc1noc([C@H]2CC[C@@H]3[C@@H](CCN3S(C)(=O)=O)O2)n1 | A: 19.23%; B: -1.689%; D: 6.004%
- COc1ccc(CNCC(C)Oc2ccccn2)cc1 (stereo not shown) | A: 18.42%; B: -2.591%; D: 3.283%
- Cc1ccc(CN2CC[C@H](c3nnc(COc4ccc(F)cc4)o3)C2)o1 | A: 5.556%; B: 2.033%; C: -6.409%; D: 1.58%
- CC(=O)N1CC(=O)N(c2ccccc2)CC12CCN(CC1CC1)C2 (stereo not shown) | A: -5.882%; B: 13.71%; D: -4.247%
- Cc1cccc(C(C(=O)N(C)Cc2ccco2)N(C)C)c1 (stereo not shown) | A: 5.208%; B: 3.8%; C: 3.916%; D: 0.7712%
- [H][C@]12CN(Cc3ccc(OC)cc3)C(=O)[C@@]1([H])CN(c1ncc(CC)cn1)C2 | C: -1.723%
- CCN(CC)Cc1nc2c(o1)CN(C(=O)c1ccc3[nH]ccc3c1)C2 | A: 43.59%; B: 0.07052%; D: 12.92%
- CCc1nc(N)sc1C(=O)N1CCCC(COc2cccc(C)c2)C1 (stereo not shown) | A: 22.37%; B: -5.862%; C: -5.103%; D: 3.738%
- Cc1nc(C2CCCN2C(=O)CC2CCCC2)ncc1C(N)=O (stereo not shown) | A: -4%; C: -2.821%; D: 1.859%
- CCC(CNC(=O)c1cccc(S(=O)(=O)NC)c1)N1CCCC1 (stereo not shown) | A: 4%; B: 0.6256%; C: -11.1%; D: -3.777%
- O=C(c1ccno1)N1CC(c2nc(-c3ccco3)no2)C1 | A: 11.86%; B: 1.498%; C: -5.753%; D: 4.141%
- CN(C)Cc1nc(-n2cnc(C(=O)NC3CCCC3)c2)n2ccccc12 | A: 15.38%; C: 7.436%; D: 2.303%
- CCOCCN1CCN(CC(O)c2cc(Cl)ccc2Cl)CC1 (stereo not shown) | A: 15.49%; B: 4.75%; C: 17.05%; D: 10.53%
- Cc1nc(CO[C@@H]2CC[C@H]3[C@H]2OCCN3Cc2cccnc2)cs1 | A: 0.885%; B: 0.9213%; D: -1.062%
- CC(C)CCN1CC[C@H](c2nnc(Cc3c[nH]c4ccccc34)o2)C1 | A: 21.62%; B: -2.67%; C: -2.157%; D: 0.1965%
- CCc1nnc(CN2CCC(C3CCCCCN3C(C)=O)CC2)o1.Cl (stereo not shown) | C: 6.408%
- Cc1ccc(CN2CCC3(CC2)NC(=O)CC3c2ccncc2)cc1C.O=C(O)C(F)(F)F.O=C(O)C(F)(F)F (stereo not shown) | C: 3.864%
- CN(c1ncc(C(=O)NCc2ccccc2)c(N)n1)C1CCCCC1 | A: 5.085%; B: -2.76%; C: 1.27%; D: -0.6274%
- CS(=O)(=O)c1ccccc1NCc1ccc(Cn2ccnc2)cc1 | A: 20.35%; B: -2.957%; C: 4.906%; D: 5.607%